Test results as given in PubChem BioAssay AID624316 (Broad Institute, 2012).
This is one part of the list. The source made no clear call on entries shown without one.

Experiment: decrease of TRPM1 reporter luminescence in SK-MEL-5 – cell-based, dry powder samples, set 4, MITF inhibitor project, dose response (AID 624316)
Conditions: SK-MEL-5 TRPM1 promoter luciferase reporter, 24 h; at 35 µM (top of the series)
Method in brief: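 System: SK-MEL-5 melanoma line stably carrying TRPM1 promoter–luciferase reporter. Buffer or medium: phenol-red-free DMEM, 10% FBS. Doses: pinned compound in DMSO. Incubation: compound added 24 h post-plating, 24 h exposure at 37 °C. Detection: luciferase luminescence with SteadyGlo, 5 min room temperature. Controls: parthenolide positive control.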

SMILES: CN1CCN(C2=C(NS(=O)(=O)c3ccc(Br)cc3)C(=O)c3ccccc3C2=O)CC1
- activity change, negative = inhibition: -88.4%
